Some results were stated once for a whole list of compounds, not compound by compound.
System: CD95-treated Jurkat cells
Experiment: In-vitro screening: uptake of tritiated compounds into apoptotic Jurkat cells
Assay type: cell-based
Settings: FIG. 1
Protocol: Uptake was measured using beta counter. zVAD treated cells reversed the phenotype decreasing uptake to control values (set as 1) in all tested candidates. Shown are means±SD of three independent experiments performed in triplicates.
For in-vitro screening of the compounds of the invention, apoptosis-induction model in hematopoietic derived cancer cell line, Jurkat was used.
Jurkat cells were cultured in RPMI supplemented with 10% fetal bovine serum, 4 mM L-glutamine, 100 U/ml penicillin and 100 n/ml streptomycin in a humidified incubator at 37° C., 5% CO2. Cells were counted and re-suspended in hepes buffer saline (HBS).
Apoptosis induction: 10^7 cells/ml were incubated for two hours with 0.1 n/ml of anti-Fas (CD95) antibody. For apoptosis inhibition (specific control), induced and control cells were incubated with 50 μM of the specific caspase inhibitor, Zvad. 2 μl Ci of the tritiated compounds or ML-10 as reference, were added to the cells for 30 minutes. All incubations were performed at 37° C. After incubation with the tritiated compounds, cells were washed twice in HBS, transferred to scintillation liquid and radioactivity was monitored using beta-counter. The percentage of uptake was calculated using the standard DPM readings. […]

| SMILES | uptake compared to ML-10 |
| --- | --- |
| CC(CCCCC[18F])(c1nnn[nH]1)c1nnn[nH]1 [APO-600, 5,5′(7-^18fluoroheptane-2,2-diyl)bis(1H-tetrazole)] | 2-3 |
| O=C(O)c1ccc(CCC[18F])cc1C(=O)O [APO-630, 4-(3-^18fluoropropyl)phthalic acid] | 2-3 |

Reference: patent publication US20150064111A1, “NOVEL TARGETING AGENTS FOR DIAGNOSTIC AND THERAPEUTIC INDICATIONS” (APOSENSE LTD., priority 2012, published 2015)
